No constants are given. Whether binding was seen depends on the method and setting. In cells and extracts the contact can be indirect. For part of these data: Binding can be weak; no strength is given. For part of these data: Sequences can lack the tags named with a protein.

Test [1] concerns the target HA-DUSP12 phosphatase domain + C-terminus truncation. Put plainly: co-IP; in vitro binding assay: HA-tagged DUSP12 forms and FLAG-ZNF622 expressed by coupled in vitro transcription/translation, incubated together with anti-HA magnetic beads 1.5 h at 4 C, washed with LAP200 buffer (200 mM KCl, 0.05% NP-40, 0.5 mM DTT); immunoblot. On the technique in general: In western blotting, separated proteins are transferred to a membrane and probed.

Test [2] concerns the target HA-DUSP12 N-terminus truncation. The test is described as above.
For test [3], the target named is HA-DUSP12 phosphatase domain truncation. The description is as above.
Test [4] concerns the target LAP-DUSP12 N-terminus truncation. Put plainly: co-IP; LAP-tagged induced HeLa stable cell lines (asynchronous or Taxol-arrested) lysed, incubated with S-protein Agarose 2 h at 4 C, washed with LAP100 buffer (100 mM KCl, 0.05% NP-40, 0.5 mM DTT); immunoblot for ZNF622.
Test [5] concerns the target LAP-DUSP12 phosphatase domain + C-terminus truncation. Described as above.
The target in test [6] is LAP-DUSP12 phosphatase domain truncation. The description is as above.

B1: FLAG-ZNF622 (protein, UniProt Q969S3 1-477)
chain: MATYTCITCRVAFRDADMQRAHYKTDWHRYNLRRKVASMAPVTAEGFQERVRAQRAVAEEESKGSATYCTVCSKKFASFNAYENHLKSRRHVELEKKAVQAVNRKVEMMNEKNLEKGLGVDSVDKDAMNAAIQQAIKAQPSMSPKKAPPAPAKEARNVVAVGTGGRGTHDRDPSEKPPRLQWFEQQAKKLAKQQEEDSEEEEEDLDGDDWEDIDSDEELECEDTEAMDDVVEQDAEEEEAEEGPPLGAIPITDCLFCSHHSSSLMKNVAHMTKDHSFFIPDIEYLSDIKGLIKYLGEKVGVGKICLWCNEKGKSFYSTEAVQAHMNDKSHCKLFTDGDAALEFADFYDFRSSYPDHKEGEDPNKAEELPSEKNLEYDDETMELILPSGARVGHRSLMRYYKQRFGLSRAVAVAKNRKAVGRVLQQYRALGWTGSTGAALMRERDMQYVQRMKSKWMLKTGMKNNATKQMHFRVQVRF
As for B1, the binding result in test [1] is on record as “binds”; in test [2], “no binding”; in test [3], “no binding”.

B2: zinc finger protein 622 (ZNF622), endogenous (protein, UniProt Q969S3 1-477)
chain: B1 chain
In the case of B2, the binding entry is listed as “no binding” in test [4], “binds” in test [5] and “no binding” in test [6].

(Values after PMC13039736.)
